Reference: PubChem BioAssay AID504764 (Drosophila RNAi Screening Center, 2011)
Purpose: 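Genome-wide screen for regulators of Notch-driven gene expression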 (primary screen). System: Drosophila Kc167 cells. Reagent: long dsRNA against Drosophila genes. Timing: about 5 days (4 days dsRNA, then 24 h after transfection). Treatment: transfection of constitutively active membrane-tethered Notch lacking the extracellular domain, read 24 h later. Measured: 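Light from a Notch-responsive E(spl)m3 luciferase reporter under active Notch, with control-promoter and no-Notch reporter wells to normalise; raw counts from paired wells a and b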. Scale: induced reporter light, run 1, well a and induced reporter light, run 1, well b: higher = more light from the Notch target reporter with active Notch; control promoter light, run 1, well a and control promoter light, run 1, well b: higher = more light from the viral control promoter (cell number, transfection, viability); uninduced reporter light, run 1, well a: higher = more light from the Notch target reporter without active Notch. Active means: 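Hit if the duplicate-averaged log2 ratio of induced to control-promoter light gives a plate-wise z beyond ±2, or induced to uninduced beyond ±1.8; weak-control or discordant-duplicate wells dropped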. Calls: active = modifier hit (raised or lowered Notch signal); inactive = not a hit.
In all, the deposit lists about 22,000 reagents; shown is an unselected part of those that have a named target and a result. Over the whole deposit, 403 (1.9%) got an active call. 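Unnormalised raw counts per well; ratio z-scores behind the hit calls and whether each hit raises or lowers signal are not deposited.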 A plus sign joins genes that one reagent is predicted to hit. Not given: the amount of reagent.

Target gene | PubChem SID | induced reporter light, run 1, well a | induced reporter light, run 1, well b | control promoter light, run 1, well a | control promoter light, run 1, well b | uninduced reporter light, run 1, well a | call
IPIP | SID104181956 | 89295 | 1.02e5 | 1.00e5 | 84925 | 6930 | inactive
CycD | SID104200025 | 32685 | 32695 | 33525 | 25870 | 4225 | inactive
Or42b | SID104184705 | 2.53e5 | 2.32e5 | 2.08e5 | 2.44e5 | 15030 | inactive
Pfdn2 | SID104190410 | 1.03e5 | 89695 | 1.20e5 | 1.26e5 | 10455 | inactive
Cpsf100 | SID104193938 | 2.09e5 | 1.73e5 | 2.19e5 | 2.29e5 | 12030 | inactive
mRpL54 | SID104184337 | 1.99e5 | 1.93e5 | 1.67e5 | 1.79e5 | 15125 | inactive
Nelf-E | SID104190359 | 1.43e5 | 1.31e5 | 1.37e5 | 1.21e5 | 8805 | inactive
CG34299 | SID104193766 | 2.08e5 | 1.71e5 | 1.88e5 | 1.88e5 | 15020 | inactive
G9a | SID104198411 | 1.03e5 | 1.12e5 | 1.74e5 | 1.99e5 | 7190 | inactive
Gpo1 | SID104186920 | 1.04e5 | 1.38e5 | 2.00e5 | 2.02e5 | 8215 | inactive
tacc | SID104191811 | 2.39e5 | 2.57e5 | 3.55e5 | 2.54e5 | 19455 | inactive
tacc | SID104192180 | 1.20e5 | 1.15e5 | 69240 | 91655 | 9300 | inactive
Uros1 | SID104197983 | 1.98e5 | 1.68e5 | 2.17e5 | 1.97e5 | 11442 | inactive
Vha100-4 | SID104196074 | 2.12e5 | 1.93e5 | 1.95e5 | 2.28e5 | 13780 | inactive
Mdh1 (retired record) | SID104182638 | 1.30e5 | 1.45e5 | 63910 | 99765 | 16255 | inactive
Trx2 | SID104183414 | 1.38e5 | 1.57e5 | 81560 | 96725 | 19755 | inactive
Alg9 | SID104194199 | 100 | 25 | 1395 | 205 | 5 | inactive
CG9928 | SID104183066 | 1.24e5 | 1.59e5 | 1.25e5 | 1.35e5 | 11445 | inactive
CG5246 | SID104195543 | 1.90e5 | 2.21e5 | 2.32e5 | 2.34e5 | 16370 | inactive
Nup93-1 | SID104199136 | 1.01e5 | 88315 | 83320 | 1.06e5 | 4370 | inactive
CG10177 | SID104193993 | 1.49e5 | 1.40e5 | 1.55e5 | 1.63e5 | 11192 | inactive
Txl | SID104191102 | 1.82e5 | 1.52e5 | 2.40e5 | 2.10e5 | 7760 | inactive
conu | SID104187602 | 2.10e5 | 1.84e5 | 2.11e5 | 2.14e5 | 16500 | inactive
Tsen2 | SID104181349 | 51760 | 48560 | 75015 | 55610 | 5070 | inactive
CG30345 | SID104184936 | 69970 | 81540 | 89820 | 1.25e5 | 4380 | inactive
OS9 | SID104182492 | 48785 | 41895 | 43350 | 35805 | 2492 | inactive
CG32225 | SID104189449 | 3.35e5 | 2.84e5 | 2.86e5 | 2.91e5 | 25555 | inactive
Lcp4 | SID104187250 | 1.56e5 | 1.43e5 | 1.92e5 | 1.90e5 | 13505 | inactive
Gem2 | SID104189513 | 1.10e5 | 1.17e5 | 69175 | 74400 | 8325 | inactive
CG15239 | SID104197764 | 1.79e5 | 1.45e5 | 3.09e5 | 3.08e5 | 13000 | inactive
Gagr | SID104190233 | 1.11e5 | 1.43e5 | 67725 | 80220 | 7895 | inactive
CG14803 | SID104198348 | 1.42e5 | 1.57e5 | 2.36e5 | 2.30e5 | 9280 | inactive
CG42372 + CG30100 | SID104185394 | 1.66e5 | 1.66e5 | 1.95e5 | 1.90e5 | 11405 | inactive
CG32425 | SID104191531 | 20885 | 15742 | 8640 | 11875 | 4380 | inactive
CG32425 | SID104191556 | 1.03e5 | 1.13e5 | 65785 | 71775 | 7740 | inactive

Records above whose gene name begins with N or n:
Target gene | PubChem SID | induced reporter light, run 1, well a | induced reporter light, run 1, well b | control promoter light, run 1, well a | control promoter light, run 1, well b | uninduced reporter light, run 1, well a | call
Nelf-E | SID104190359 | 1.43e5 | 1.31e5 | 1.37e5 | 1.21e5 | 8805 | inactive
Nup93-1 | SID104199136 | 1.01e5 | 88315 | 83320 | 1.06e5 | 4370 | inactive
